Experimental data as given in US20080250710A1, “Low Light Cultivation Method and Plant Growth Promoting Agent” (priority 2005, published 2008).
At least one structure is not confirmed: it was looked up by name or label, or the drawing left a doubt.

Test system: houseplant weeping fig (Ficus benzyamina)
Assay: Low light cultivation of weeping fig: leaf survival ratio
Assay type: in vivo
Conditions: after four weeks, verdict in words

NCC(=O)CCC(=O)O [Aminolevulinic acid, aminolevulinic acid, reference compound]
effectiveness to low light cultivation (leaf survival ratio versus control reagent): does not effectively function
